Reference: article doi:10.1101/2021.08.09.455745

B1: DAB2 (protein, UniProt P98082 1-770)
chain: MSNEVETSATNGQPDQQAAPKAPSKKEKKKGPEKTDEYLLARFKGDGVKYKAKLIGIDDVPDARGDKMSQDSMMKLKGMAAAGRSQGQHKQRIWVNISLSGIKIIDEKTGVIEHEHPVNKISFIARDVTDNRAFGYVCGGEGQHQFFAIKTGQQAEPLVVDLKDLFQVIYNVKKKEEEKKKIEEASKAVENGSEALMILDDQTNKLKSGVDQMDLFGDMSTPPDLNSPTESKDILLVDLNSEIDTNQNSLRENPFLTNGITSCSLPRPTPQASFLPENAFSANLNFFPTPNPDPFRDDPFTQPDQSTPSSFDSLKSPDQKKENSSSSSTPLSNGPLNGDVDYFGQQFDQISNRTGKQEAQAGPWPFSSSQTQPAVRTQNGVSEREQNGFSVKSSPNPFVGSPPKGLSIQNGVKQDLESSVQSSPHDSIAIIPPPQSTKPGRGRRTAKSSANDLLASDIFAPPVSEPSGQASPTGQPTALQPNPLDLFKTSAPAPVGPLVGLGGVTVTLPQAGPWNTASLVFNQSPSMAPGAMMGGQPSGFSQPVIFGTSPAVSGWNQPSPFAASTPPPVPVVWGPSASVAPNAWSTTSPLGNPFQSNIFPAPAVSTQPPSMHSSLLVTPPQPPPRAGPPKDISSDAFTALDPLGDKEIKDVKEMFKDFQLRQPPAVPARKGEQTSSGTLSAFASYFNSKVGIPQENADHDDFDANQLLNKINEPPKPAPRQVSLPVTKSTDNAFENPFFKDSFGSSQASVASSQPVSSEMYRDPFGNPFA
B2: HIP1 (protein, UniProt O00291 1-1037)
chain: MDRMASSMKQVPNPLPKVLSRRGVGAGLEAAERESFERTQTVSINKAINTQEVAVKEKHARTCILGTHHEKGAQTFWSVVNRLPLSSNAVLCWKFCHVFHKLLRDGHPNVLKDSLRYRNELSDMSRMWGHLSEGYGQLCSIYLKLLRTKMEYHTKNPRFPGNLQMSDRQLDEAGESDVNNFFQLTVEMFDYLECELNLFQTVFNSLDMSRSVSVTAAGQCRLAPLIQVILDCSHLYDYTVKLLFKLHSCLPADTLQGHRDRFMEQFTKLKDLFYRSSNLQYFKRLIQIPQLPENPPNFLRASALSEHISPVVVIPAEASSPDSEPVLEKDDLMDMDASQQNLFDNKFDDIFGSSFSSDPFNFNSQNGVNKDEKDHLIERLYREISGLKAQLENMKTESQRVVLQLKGHVSELEADLAEQQHLRQQAADDCEFLRAELDELRRQREDTEKAQRSLSEIERKAQANEQRYSKLKEKYSELVQNHADLLRKNAEVTKQVSMARQAQVDLEREKKELEDSLERISDQGQRKTQEQLEVLESLKQELATSQRELQVLQGSLETSAQSEANWAAEFAELEKERDSLVSGAAHREEELSALRKELQDTQLKLASTEESMCQLAKDQRKMLLVGSRKAAEQVIQDALNQLEEPPLISCAGSADHLLSTVTSISSCIEQLEKSWSQYLACPEDISGLLHSITLLAHLTSDAIAHGATTCLRAPPEPADSLTEACKQYGRETLAYLASLEEEGSLENADSTAMRNCLSKIKAIGEELLPRGLDIKQEELGDLVDKEMAATSAAIETATARIEEMLSKSRAGDTGVKLEVNERILGCCTSLMQAIQVLIVASKDLQREIVESGRGTASPKEFYAKNSRWTEGLISASKAVGWGATVMVDAADLVVQGRGKFEELMVCSHEIAASTAQLVAASKVKADKDSPNLAQLQQASRGVNQATAGVVASTISGKSQIEETDNMDFSSMTLTQIKRQEMDSQVRVLELENELQKERQKLGELRKKHYELAGVAEGWEEGTEASPPTLQEVVTEKE
B3: ankycorbin (protein, UniProt Q9P0K7 1-980)
chain: MKSLKAKFRKSDTNEWNKNDDRLLQAVENGDAEKVASLLGKKGASATKHDSEGKTAFHLAAAKGHVECLRVMITHGVDVTAQDTTGHSALHLAAKNSHHECIRKLLQSKCPAESVDSSGKTALHYAAAQGCLQAVQILCEHKSPINLKDLDGNIPLLLAVQNGHSEICHFLLDHGADVNSRNKSGRTALMLACEIGSSNAVEALIKKGADLNLVDSLGYNALHYSKLSENAGIQSLLLSKISQDADLKTPTKPKQHDQVSKISSERSGTPKKRKAPPPPISPTQLSDVSSPRSITSTPLSGKESVFFAEPPFKAEISSIRENKDRLSDSTTGADSLLDISSEADQQDLLSLLQAKVASLTLHNKELQDKLQAKSPKEAEADLSFDSYHSTQTDLGPSLGKPGETSPPDSKSSPSVLIHSLGKSTTDNDVRIQQLQEILQDLQKRLESSEAERKQLQVELQSRRAELVCLNNTEISENSSDLSQKLKETQSKYEEAMKEVLSVQKQMKLGLVSPESMDNYSHFHELRVTEEEINVLKQDLQNALEESERNKEKVRELEEKLVEREKGTVIKPPVEEYEEMKSSYCSVIENMNKEKAFLFEKYQEAQEEIMKLKDTLKSQMTQEASDEAEDMKEAMNRMIDELNKQVSELSQLYKEAQAELEDYRKRKSLEDVTAEYIHKAEHEKLMQLTNVSRAKAEDALSEMKSQYSKVLNELTQLKQLVDAQKENSVSITEHLQVITTLRTAAKEMEEKISNLKEHLASKEVEVAKLEKQLLEEKAAMTDAMVPRSSYEKLQSSLESEVSVLASKLKESVKEKEKVHSEVVQIRSEVSQVKREKENIQTLLKSKEQEVNELLQKFQQAQEELAEMKRYAESSSKLEEDKDKKINEMSKEVTKLKEALNSLSQLSYSTSSSKRQSQQLEALQQQVKQLQNQLAECKKQHQEVISVYRMHLLYAVQGQMDEDVQKVLKQILTMCKNQSQKK
B4: STON2 (protein, UniProt Q8WXE9 1-905)
chain: MTTLDHVIATHQSEWVSFNEEPPFPAHSQGGTEEHLPGLSSSPDQSESSSGENHVVDGGSQDHSHSEQDDSSEKMGLISEAASPPGSPEQPPPDLASAISNWVQFEDDTPWASTSPPHQETAETALPLTMPCWTCPSFDSLGRCPLTSESSWTTHSEDTSSPSFGCSYTDLQLINAEEQTSGQASGADSTDNSSSLQEDEEVEMEAISWQASSPAMNGHPAPPVTSARFPSWVTFDDNEVSCPLPPVTSPLKPNTPPSASVIPDVPYNSMGSFKKRDRPKSTLMNFSKVQKLDISSLNRTPSVTEASPWRATNPFLNETLQDVQPSPINPFSAFFEEQERRSQNSSISSTTGKSQRDSLIVIYQDAISFDDSSKTQSHSDAVEKLKQLQIDDPDHFGSATLPDDDPVAWIELDAHPPGSARSQPRDGWPMMLRIPEKKNIMSSRHWGPIFVKLTDTGYLQLYYEQGLEKPFREFKLEICHEISEPRLQNYDENGRIHSLRIDRVTYKEKKKYQPKPAVAHTAEREQVIKLGTTNYDDFLSFIHAVQDRLMDLPVLSMDLSTVGLNYLEEEITVDVRDEFSGIVSKGDNQILQHHVLTRIHILSFLSGLAECRLGLNDILVKGNEIVLRQDIMPTTTTKWIKLHECRFHGCVDEDVFHNSRVILFNPLDACRFELMRFRTVFAEKTLPFTLRTATSVNGAEVEVQSWLRMSTGFSANRDPLTQVPCENVMIRYPVPSEWVKNFRRESVLGEKSLKAKVNRGASFGSTSVSGSEPVMRVTLGTAKYEHAFNSIVWRINRLPDKNSASGHPHCFFCHLELGSDREVPSRFANHVNVEFSMPTTSASKASVRSISVEDKTDVRKWVNYSAHYSYQVALGSIWLMLPTPFVHPTTLPLLFLLAMLTMFAW
B5: CLTA (protein, UniProt P09496 1-248)
chain: MAELDPFGAPAGAPGGPALGNGVAGAGEEDPAAAFLAQQESEIAGIENDEAFAILDGGAPGPQPHGEPPGGPDAVDGVMNGEYYQESNGPTDSYAAISQVDRLQSEPESIRKWREEQMERLEALDANSRKQEAEWKEKAIKELEEWYARQDEQLQKTKANNRVADEAFYKQPFADVIGYVTNINHPCYSLEQAAEEAFVNDIDESSPGTEWERVARLCDFNPKSSKQAKDVSRMRSVLISLKQAPLVH
B6: LRCH3 (protein, UniProt Q96II8 1-777)
chain: MAAAGLVAVAAAAEYSGTVASGGNLPGVHCGPSSGAGPGFGPGSWSRSLDRALEEAAVTGVLSLSGRKLREFPRGAANHDLTDTTRADLSRNRLSEIPIEACHFVSLENLNLYQNCIRYIPEAILNLQALTFLNISRNQLSTLPVHLCNLPLKVLIASNNKLVSLPEEIGHLRHLMELDVSCNEIQTIPSQIGNLEALRDLNVRRNHLVHLPEELAELPLIRLDFSCNKITTIPVCYRNLRHLQTITLDNNPLQSPPAQICIKGKVHIFKYLNIQACKIAPDLPDYDRRPLGFGSCHEELYSSRPYGALDSGFNSVDSGDKRWSGNEPTDEFSDLPLRVAEITKEQRLRRESQYQENRGSLVVTNGGVEHDLDQIDYIDSCTAEEEEAEVRQPKGPDPDSLSSQFMAYIEQRRISHEGSPVKPVAIREFQKTEDMRRYLHQNRVPAEPSSLLSLSASHNQLSHTDLELHQRREQLVERTRREAQLAALQYEEEKIRTKQIQRDAVLDFVKQKASQSPQKQHPLLDGVDGECPFPSRRSQHTDDSALCMSLSGLNQVGCAATLPHSSAFTPLKSDDRPNALLSSPATETVHHSPAYSFPAAIQRNQPQRPESFLFRAGVRAETNKGHASPLPPSAAPTTDSTDSITGQNSRQREEELELIDQLRKHIEYRLKVSLPCDLGAALTDGVVLCHLANHVRPRSVPSIHVPSPAVPKLTMAKCRRNVENFLEACRKIGVPQEQLCLPLHILEEKGLSQVAVTVQALLELAPPKQQQHQLSAV

Each binder was assayed against ARAP1 (human (endogenous in fetal RPE cells)) (assay: affinity purification with mass spectrometry).

binding, binds:
B1
B2
B3
B4
B5
B6

Results are given in words; binding and its absence hold for the method and conditions named. In cells and extracts the contact can be indirect. A yes stands for co-enrichment or nearness to the bait. Other partners may have been found.
